This is an account of results in paper PMC5458251.

Protein sequences, listed by entry. Tags and fused reporters are not part of them. Lines headed by an entry give the natural chain unless they say otherwise; changes in a name come on top.
UniProt Q16665: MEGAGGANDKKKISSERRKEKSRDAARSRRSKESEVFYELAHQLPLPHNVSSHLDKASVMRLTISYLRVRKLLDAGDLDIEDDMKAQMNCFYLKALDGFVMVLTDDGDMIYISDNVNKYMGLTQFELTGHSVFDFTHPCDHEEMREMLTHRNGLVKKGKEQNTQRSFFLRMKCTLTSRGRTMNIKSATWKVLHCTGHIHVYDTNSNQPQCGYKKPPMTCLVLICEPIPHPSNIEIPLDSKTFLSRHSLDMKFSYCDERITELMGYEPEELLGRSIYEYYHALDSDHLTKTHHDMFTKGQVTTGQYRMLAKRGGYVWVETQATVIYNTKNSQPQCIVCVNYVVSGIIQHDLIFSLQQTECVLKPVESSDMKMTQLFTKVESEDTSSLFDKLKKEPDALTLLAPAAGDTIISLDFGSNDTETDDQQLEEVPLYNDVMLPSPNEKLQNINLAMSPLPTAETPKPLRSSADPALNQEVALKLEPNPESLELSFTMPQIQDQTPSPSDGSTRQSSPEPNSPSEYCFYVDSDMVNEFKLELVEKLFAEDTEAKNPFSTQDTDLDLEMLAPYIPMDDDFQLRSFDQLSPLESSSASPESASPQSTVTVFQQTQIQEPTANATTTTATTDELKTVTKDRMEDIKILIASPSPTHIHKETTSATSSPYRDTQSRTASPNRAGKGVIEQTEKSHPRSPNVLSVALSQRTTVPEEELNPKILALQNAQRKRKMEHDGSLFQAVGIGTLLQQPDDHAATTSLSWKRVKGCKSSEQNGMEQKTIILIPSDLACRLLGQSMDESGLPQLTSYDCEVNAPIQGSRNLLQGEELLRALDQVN

No constants are given. Whether binding was seen depends on the method and setting. In cells and extracts the contact can be indirect. Some entries that bind do so weakly or less than the wild type. For some of these results: Tags and fused reporters may be left off the sequences shown.

Assay [1] addresses T1, SEPT9_i1-YN (split-YFP chimera: septin 9 isoform 1 with EE tag, linker and N-terminal YFP fragment on its C-terminus) (human) (UniProt Q9UHD8).
T1 sequence: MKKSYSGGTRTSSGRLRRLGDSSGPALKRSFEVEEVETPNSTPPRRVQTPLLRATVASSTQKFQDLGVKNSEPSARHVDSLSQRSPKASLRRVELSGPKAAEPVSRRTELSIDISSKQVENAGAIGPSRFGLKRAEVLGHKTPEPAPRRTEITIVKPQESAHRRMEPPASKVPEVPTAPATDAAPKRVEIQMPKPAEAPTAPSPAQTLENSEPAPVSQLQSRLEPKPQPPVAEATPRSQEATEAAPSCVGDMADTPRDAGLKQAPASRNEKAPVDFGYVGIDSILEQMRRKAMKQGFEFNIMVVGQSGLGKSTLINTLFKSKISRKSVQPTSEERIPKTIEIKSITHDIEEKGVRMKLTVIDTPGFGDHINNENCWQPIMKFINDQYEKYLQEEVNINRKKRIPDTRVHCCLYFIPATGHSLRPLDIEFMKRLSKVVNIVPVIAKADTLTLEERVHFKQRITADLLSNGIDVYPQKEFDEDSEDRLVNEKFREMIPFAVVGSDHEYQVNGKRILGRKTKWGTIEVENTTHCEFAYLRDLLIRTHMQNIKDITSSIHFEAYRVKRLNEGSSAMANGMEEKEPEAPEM
The assay is described as follows: split reporter; split YFP in live PC-3 cells stably transfected with SEPT9_i1-YN and Tet-On inducible YC-HIF-1α (clone #23); 1 μg/ml Dox, 100 μM DBM or 0.01% DMSO.

Assay [2] has as its target T1, SEPT9_i1-YN (split-YFP chimera: septin 9 isoform 1 with EE tag, linker and N-terminal YFP fragment on its C-terminus) (human). The assay is described as follows: split reporter; split YFP in live PC-3 cells, YC-HIF-1α and SEPT9_i1-YN transiently co-expressed with the SEPT9_i1 252-379aa fragment or its empty vector; 100 μM DBM or 0.01% DMSO overnight.
For assay [3] the target is unchanged. Put plainly: split reporter; split YFP (YN/YC) in live PC-3 cells, transient co-transfection with 10-fold more HIF-1α plasmid than SEPT9_i1 plasmid, confocal imaging 48 h after transfection; cells treated overnight with 250 μM CoCl2, 100 μM DBM, DBM with 1 μM 17-AAG or 150 μM FCF, or 0.01% DMSO.
Assay [4] addresses YC-HIF-1α (split-YFP chimera: C-terminal YFP fragment, linker and HA tag on the N-terminus of hypoxia-inducible factor 1α) (human) (UniProt Q16665). The assay is described as follows: split reporter; split YFP in live PC-3 cells, YC-HIF-1α and SEPT9_i1-YN transiently co-expressed with the SEPT9_i1 252-379aa fragment or its empty vector; 100 μM DBM or 0.01% DMSO overnight.

In the case of “YC-HIF-1α (split-YFP chimera: C-terminal YFP fragment, linker and HA tag on the N-terminus of hypoxia-inducible factor 1α) (from UniProt Q16665 1-826)”, the binding result in assay [1], in assay [2] and in assay [3] was “binds” each time.

B1: SEPT9_i1 252-379aa fragment (domain or fragment, UniProt Q9UHD8 252-379)
chain: MADTPRDAGLKQAPASRNEKAPVDFGYVGIDSILEQMRRKAMKQGFEFNIMVVGQSGLGKSTLINTLFKSKISRKSVQPTSEERIPKTIEIKSITHDIEEKGVRMKLTVIDTPGFGDHINNENCWQPI
B1: in assay [4], the binding entry is “binds”.
